{"source": "patent US11975103B2", "about": "“Compositions of midodrine and methods of using the same” (XENAMED CORP., priority 2016, dated 2024)", "origin": "cited, not measured here", "note": "The name of at least one read-out is uncertain."}
{"smiles": "COc1ccc(OC)c(C(O)CNC(=O)CN)c1.Cl", "note": "(racemic) [Midodrine hydrochloride, (±)-2-amino-N-[2-(2,5-dimethoxyphenyl)-2-hydroxyethyl]acetamide monohydrochloride]", "values": [{"measurement": "permeability", "value": "high permeability"}]}
